Experimental data published in the supplement of paper PMC7877785.
± gives the uncertainty stated by the source. Many of these values have a large error.

Experiment: self-splicing fitness, log relative to wild type (ln ratio); higher = more splicing; Tetrahymena group I intron in knt gene, E. coli kanamycin selection, DiMSum; sequences stand for … in CUCUCU…GGAGGGAAAAGUUAUCAGGCAUGCACCUGGUAGCUAGUCUUUAAACCAAUAGAUUGCAUCGGUUUAAAAGGCAAGACCGUCAAAUUGCGGGAAAGGGGUCAACAGCCGUUCAGUACCAAGUCUCAGGGGAAACUUUGAGAUGGCCUUGCAAAGGGUAUGGUAAUAAGCUGACGGACAUGGUCCUAACCACGCAGCCAAGUCCUAAGUCAACAGAUCUUCUGUUGAUAUGGAUGCAGUUCACAGACUAAAUGUCGGUCGGGGAAGAUGUAUUCUUCUCAUAAGAUAUAGUCGGACCUCUCCUUAAUGGGAGCUAGCGGAUGAAGUGAUGCAACACUGGAGCCGCUGGGAACUAAUUUGUAUGCGAAAGUAUAUUGAUUAGUUUUGGAGUACUCGUGGUCG
Method in brief: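 The eight P1ex-region nucleotides of an intron in the knt kanamycin-resistance gene on pET-22b(+) were all randomised and the library put into E. coli BL21(DE3). Six replicate transformations were grown overnight at 37°C or 30°C on LB agar with or without 25 μg/mL kanamycin, together with 100 μg/mL carbenicillin, 50 μM IPTG and 0.2% rhamnose. Colonies were pooled and amplicon-sequenced on an Illumina HiSeq 2500. Fitness from DiMSum is the error-weighted combination of wild-type-normalised replicate fold changes, kanamycin over none.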

| Sequence | self-splicing fitness (ln) (30 °C) | self-splicing fitness (ln) (37 °C) |
| --- | --- | --- |
| GGGAAGCAAUAUUACGAAUA | -3.36 ± 0.61 | – |
| CGUAAGCAAUAUUACGAGAA | -1.52 ± 1.2 | -0.373 ± 0.92 |
| AGGGAGCAAUAUUACGCCGA | – | -2.2 ± 1.1 |
| ACGGAGCAAUAUUACGACCC | -1.69 ± 0.91 | – |
| UUGCAGCAAUAUUACGGAAU | – | -3.14 ± 0.61 |
| CCGUAGCAAUAUUACGGCCA | -3.75 ± 0.74 | – |
| AGGGAGCAAUAUUACGCCAC | – | -2.58 ± 0.76 |
| GUCGAGCAAUAUUACGGGAC | -3.05 ± 0.22 | -2.05 ± 0.21 |
| GUUCAGCAAUAUUACGCCAG | -2.06 ± 0.29 | -2.41 ± 0.56 |
| AGUUAGCAAUAUUACGCGCC | -1.44 ± 0.58 | -0.534 ± 0.72 |
| UCAGAGCAAUAUUACGCCGG | – | -1.74 ± 0.59 |
| GUGGAGCAAUAUUACGCUGC | -2.16 ± 0.75 | -1.62 ± 1.1 |
| GUCGAGCAAUAUUACGCUUG | -4 ± 1 | – |
| GAGGAGCAAUAUUACGACCG | -3.94 ± 0.73 | – |
| UUGCAGCAAUAUUACGAAAG | -4.21 ± 0.52 | – |
| CCCUAGCAAUAUUACGGGCG | -1.68 ± 0.089 | -0.597 ± 0.1 |
| GAGAAGCAAUAUUACGGGAU | -3.32 ± 0.16 | -2.58 ± 0.2 |
| GGAUAGCAAUAUUACGUGGG | -5.27 ± 0.51 | – |
| UUGCAGCAAUAUUACGAUAU | -4.06 ± 0.32 | -1.78 ± 0.24 |
| UUGAAGCAAUAUUACGGUCG | 0.0283 ± 0.088 | 0.283 ± 0.1 |
| CGUCAGCAAUAUUACGUCAC | -3.16 ± 0.54 | – |
| CUUGAGCAAUAUUACGGCCC | – | -0.145 ± 0.71 |
| AGGUAGCAAUAUUACGCAAU | -1.959 ± 0.017 | -1.03 ± 0.034 |

An excerpt of these results, with bars between the fields.
Sequence | self-splicing fitness (ln) (30 °C) | self-splicing fitness (ln) (37 °C)
GAGAAGCAAUAUUACGGGAU | -3.32 ± 0.16 | -2.58 ± 0.2
GGAUAGCAAUAUUACGUGGG | -5.27 ± 0.51 | –

(list continues)

| Sequence | self-splicing fitness (ln) (30 °C) | self-splicing fitness (ln) (37 °C) |
| --- | --- | --- |
| CGAGAGCAAUAUUACGCCCG | – | -3.27 ± 1 |
| CCUUAGCAAUAUUACGUCCA | -4.13 ± 0.59 | – |
| UCGGAGCAAUAUUACGAAAC | – | -1.86 ± 0.52 |
| CGGGAGCAAUAUUACGUCAA | -2.14 ± 0.19 | -2.79 ± 0.38 |
| CUGUAGCAAUAUUACGAGCU | -4.48 ± 0.73 | -3.09 ± 1 |
| CGAGAGCAAUAUUACGGAAA | – | -3.06 ± 0.52 |
| GGUUAGCAAUAUUACGGGAU | -3.13 ± 0.26 | -1.4 ± 0.24 |
| UAGCAGCAAUAUUACGCACC | -0.936 ± 0.16 | -0.423 ± 0.16 |
| CUCAAGCAAUAUUACGCUCC | -3.52 ± 1.1 | -2.07 ± 0.57 |
| AGGGAGCAAUAUUACGAAAC | 0.285 ± 1.1 | -1.98 ± 0.67 |
| CAUGAGCAAUAUUACGACAC | -3.45 ± 0.73 | – |
| AUUCAGCAAUAUUACGCUAC | -3.48 ± 1.1 | -2.08 ± 0.56 |
| GACUAGCAAUAUUACGGCAA | -0.738 ± 0.08 | -0.302 ± 0.09 |
| UUCUAGCAAUAUUACGCUGC | -3.81 ± 1 | – |
| CCCCAGCAAUAUUACGGCCU | -3.02 ± 0.29 | -2.82 ± 0.47 |
| UGGGAGCAAUAUUACGUAGC | – | -3.17 ± 0.61 |
| GGCGAGCAAUAUUACGGCCG | -2.11 ± 0.16 | -0.882 ± 0.2 |
| CGGUAGCAAUAUUACGGAAU | -2.47 ± 0.63 | – |
| CGGUAGCAAUAUUACGUACU | -1.36 ± 0.15 | -0.578 ± 0.16 |
| CCGGAGCAAUAUUACGACGG | -4.33 ± 0.51 | -3.99 ± 0.51 |
| AUAUAGCAAUAUUACGUUAG | -0.572 ± 0.76 | 0.000402 ± 1.2 |
| GUGGAGCAAUAUUACGGUGA | -2.44 ± 0.55 | – |
